# Measurements published in patent publication US20020026059A1 (priority 1995, published 2002).
# Some results were stated once for a whole list of compounds, not compound by compound.
# Test system: Venturia inaequalis
# Assay: Venturia test (apple)/protective
# Type: in vivo
# Conditions: apple plants, protective spray, active compound concentration of 10 ppm, evaluation 12 days after inoculation
# Description: Venturia test (apple)/protective
# Solvent: 4.7 parts by weight of acetone Emulsifier: 0.3 parts by weight of alkylaryl polyglycol ether
# To produce a suitable preparation of active compound, 1 part by weight of active compound is mixed with the stated amounts of solvent and emulsifier, and the concentrate is diluted with water to the desired concentration.
# To test for protective activity, young plants are sprayed with the preparation of active compound to run-off point. After the spray coating has dried on, the plants are inoculated with an aqueous suspension of conidia of the causative organism of apple scab (Venturia inaequalis) and then remain in an incubation cupboard at 20° C. and 100% relative atmospheric humidity for 1 day.
# The plants are then placed in a greenhouse at 20° C. and a relative atmospheric humidity of about 70%.
# Evaluation is carried out 12 days after the inoculation. 0% means an efficacy corresponding to that of the control, 100% means that no infestation is observed.
row,Structure (SMILES),"Efficacy in %, based on the untreated control"
1,"N#Cc1nc2cc3c(cc2n1S(=O)(=O)c1cccs1)OC(F)(F)C(F)(F)O3 [Example 3, 2-cyano-6,6,7,7-tetrafluoro-3-(thienyl-2-sulphonyl)-[1,4]-dioxino[2,3-f]-benzimidazole]",more than 50%
2,"Cc1noc(C)c1S(=O)(=O)n1c(C#N)nc2cc3c(cc21)OC(F)(F)O3 [Example 1, 2-cyano-6,6-difluoro-3-(3,5-dimethyl-isoxazolyl-4-sulphonyl)-[1,3]dioxolo[4,5-f]benzimidazole]",more than 50%
3,"Cc1noc(C)c1S(=O)(=O)n1c(C#N)nc2cc3c(cc21)OC(F)(F)C(F)(F)O3 [Example 2, 2-cyano-6,6,7,7-tetrafluoro-3-(3,5-dimethyl-isoxazolyl-4-sulphonyl)-[1,4]-dioxino-[2,3-f]benzimidazole]",more than 50%
